Measured values published in patent publication US20210380682A1.
Residue numbers refer to the chain shown, from its start. Results are given in words; binding and its absence hold for the method and conditions named. Some binding calls cover weakened binding; strength is not graded here.

Sequences of proteins named here, by UniProt entry; tags and fusion partners are left off. Residues count along the entry.
UniProt P01850, residues 1-129: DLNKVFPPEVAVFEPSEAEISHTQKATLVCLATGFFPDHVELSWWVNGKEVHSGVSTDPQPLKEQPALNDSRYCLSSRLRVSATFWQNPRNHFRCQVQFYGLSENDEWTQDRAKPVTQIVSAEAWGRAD

B1: JOVI.1 (murine anti-TRBC1 antibody), bivalent mAb (antibody, V domains shown)
VH: EVRLQQSGPDLIKPGASVKMSCKASGYTFTGYVMHWVKQRPGQGLEWIGFINPYNDDIQSNERFRGKATLTSDKSSTTAYMELSSLTSEDSAVYYCARGAGYNFDGAYRFFDFWGQGTTLTVSS
VL: DVVMTQSPLSLPVSLGDQASISCRSSQRLVHSNGNTYLHWYLQKPGQSPKLLIYRVSNRFPGVPDRFSGSGSGTDFTLKISRVEAEDLGIYFCSQSTHVPYTFGGGTKLEIK
B2: BIM0446, JOVI.1 Fab (Fab, V domains shown)
VH: B1 VH
VL: B1 VL
B3: BIM0460, humanized JOVI.1 Fab (Fab, V domains shown)
VH: QVQLVQSGAEVKKPGSSVKVSCKASGYTFTGYVMHWVRQAPGQGLEWMGFINPYNDDIQSNERFRGRVTITSDKSTTTAYMELSSLRSEDTAVYYCARGAGYNFDGAYRFFDFWGQGTLVTVSS
VL: B1 VL with S14T, D17Q, Q18P, L42Q, K44R, K50R, L88V, I90V, L109V

Tests used:
[1] = biological target: human TRBC1 (T cell receptor beta chain constant domain 1), construct BIM0444 (human) (UniProt P01850); assay: ELISA: antibody coated at 1 ug/mL, hTRBC1 BIM0444 titrated 100 nM to 6.4 pM, anti-his tag HRP detection
[2] = biological target: human TRBC1 (T cell receptor beta chain constant domain 1), construct BIM0444 (human) (UniProt P01850); assay: ELISA (FIG. 7)
[3] = biological target: human TRBC1 (T cell receptor beta chain constant domain 1), construct BIM0444 (human) (UniProt P01850); assay: BLI (Octet): hTRBC1 BIM0444 loaded on Protein A sensors, Fab 50 nM to 0.78 nM
[4] = biological target: human TRBC1 (T cell receptor beta chain constant domain 1), construct BIM0444 (human) (UniProt P01850); assay: BLI (Octet) (FIG. 8)

Binder | binding [1] | binding [2] | binding [3] | binding [4]
B1 | binds | binds |  | 
B2 |  |  | binds | binds
B3 |  |  | binds | binds
